Our source for the binding values is paper PMC6125409.

In test [1] the target is gEpEX fused to IgG1 heavy chain hinge and Fc region (UniProt P16422). Nature of the test: bead aggregation assay; Fc fusions held on Protein A-coupled 1 µm magnetic beads; 20 mM HEPES pH 8.0, 100 mM NaCl, 2 mM CaCl2, 0.1% Tween-20 (Triton X-100 for gEpFL-Fc; 2 mM EDTA instead of CaCl2 for E-CadEX-Fc(EDTA)); room temperature; interaction between Fc-locked dimers on separate beads; both purified.

Test [2] has the same target. Put plainly: bead aggregation assay; gEpEX-Fc on Protein A beads; same buffer without CaCl2 or EDTA, pH adjusted to various values (Tris-HCl for pH 8.5); room temperature; interaction between Fc-locked dimers on separate beads; both purified.

No constants are given. Whether binding was seen depends on the method and setting. Tags and fused reporters may be left off the sequences shown.

B1: gEpEX fused to IgG1 heavy chain hinge and Fc region (Fc fusion, UniProt P16422 24-265)
chain: QEECVCENYKLAVNCFVNNNRQCQCTSVGAQNTVICSKLAAKCLVMKAEMNGSKLGRRAKPEGALQNNDGLYDPDCDESGLFKAKQCNGTSMCWCVNTAGVRRTDKDTEITCSERVRTYWIIIELKHKAREKPYDSKSLRTALQKEITTRYQLDPKFITSILYENNVITIDLVQNSSQKTQNDVDIADVAYYFEKDVKGESLFHSKKMDLTVNGEQLDLDPGQTLIYYVDEKAPEFSMQGLK
modifications: glycosylated (non-native, as produced in insect cells)
Turning to B1, the binding result in test [1] and in test [2] was “no binding” each time.
